Results from article PMC4200280.
Results are given in words; binding and its absence hold for the method and conditions named. Binding seen in cells or lysates may run through a third protein. Binding can be weak; no strength is given.

Chains of the proteins cited; added tags and fusions are not shown. Lines headed by an entry give the natural chain unless they say otherwise; changes in a name come on top.
UniProt P36012: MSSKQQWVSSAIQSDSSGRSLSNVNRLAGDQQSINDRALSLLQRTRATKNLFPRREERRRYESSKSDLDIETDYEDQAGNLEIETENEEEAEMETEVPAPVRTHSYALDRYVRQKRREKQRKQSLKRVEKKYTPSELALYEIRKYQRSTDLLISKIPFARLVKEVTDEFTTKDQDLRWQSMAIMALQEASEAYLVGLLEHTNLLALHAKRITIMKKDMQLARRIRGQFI
UniProt Q12161: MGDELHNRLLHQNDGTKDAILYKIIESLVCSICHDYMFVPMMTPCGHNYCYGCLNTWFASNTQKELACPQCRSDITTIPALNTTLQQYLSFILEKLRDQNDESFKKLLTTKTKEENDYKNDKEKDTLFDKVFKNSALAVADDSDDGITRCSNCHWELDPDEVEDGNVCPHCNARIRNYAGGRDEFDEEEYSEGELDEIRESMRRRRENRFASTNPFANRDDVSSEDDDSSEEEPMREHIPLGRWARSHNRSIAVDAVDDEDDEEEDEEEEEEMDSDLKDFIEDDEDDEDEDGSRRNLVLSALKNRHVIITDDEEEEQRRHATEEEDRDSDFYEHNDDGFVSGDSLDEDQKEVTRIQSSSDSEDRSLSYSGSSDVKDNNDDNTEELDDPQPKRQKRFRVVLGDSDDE

Target: Cse4 (overexpressed from the GAL promoter on a 2-μm plasmid) (budding yeast) (UniProt P36012)
Test: co-IP; cell lysates of strains overexpressing Cse4 from the GAL promoter; IP with anti-Cse4 antibody, Psh1-HA detected; control IP without antibody

Psh1-S6D-HA (from UniProt Q12161) (enzyme)
binding: binds
